The values that follow come from article PMC11212260, “Next-generation neuropeptide Y receptor small-molecule agonists inhibit mosquito-biting behavior” (Parasites & Vectors, 2024).

SMILES strings stand for the structures. “And” between values parts separate entries of the source, which are not always exact repeats. Identical values can stand only once. Where no unit stands, none is given here, and values compare only within one read-out.

The test system of one data set is Aedes aegypti (Orlando strain) females. As to the kind of experiment: Glytube feeding: females feeding to repletion and weight per female (meal palatability). The data set is classed as in vivo. The note with it: Supplemental Figure 1 Panel B; compounds of Fig 3; individual replicate values. The procedure: Groups of 60–150 females were placed in bucket cages with a diameter of 21.6 cm and height of 16.5 cm (VWR) and fasted with access to water for 24 h prior to feeding. Meals were delivered to females via Glytube membrane feeders as described previously. Meals consisted of 1.5 ml sheep blood (HemoStat Laboratories), saline (400 mM NaHCO3 + dih2O), or saline and test compound. Lyophilized compounds were stored at room temperature until use. High-concentration stocks (30 mM in 100% dimethyl sulfoxide [DMSO]) (Sigma-Aldrich) were stored at −20 °C and diluted in saline immediately prior to feeding. Once prepared, meals and glycerol heating elements were warmed in a 42 °C water bath for 15 min to provide warmth to attract mosquitos to feed. ATP (1 mM final concentration) and test compounds (1 μM final concentration) were added prior to placing the meal on top of the mesh on the cage containing female mosquitos. Females were allowed 15–20 min to feed to repletion. Abdominal engorgement was scored by eye and confirmed by weighing females to ensure full feeding (Data S1). […] Females were returned to their original cage with a diH2O wick for 48 h prior to behavioral testing. The lethality of each compound was measured by counting the number of dead females in each cage 24 h post-meal.
Supplementary file 13071_2024_6347_MOESM1_ESM.png: Supplementary Material 1: Figure 1. […] (A) Percent of females feeding to repletion and (B) weight per female after feeding on the indicated meal used for testing in Miniport olfactometer experiments in Figure 3B. (C) Percent of females feeding to repletion and (D) weight per female after feeding on the indicated meal used for testing in live host assays in Figure 4. Data are shown as mean with standard deviation. n = 2–22 replicate cages, 60–150 females/cage. Females were weighed in groups of five to ensure reliable readings. Kruskal–Wallis with Dunn’s multiple comparisons to saline-fed group, ns P > 0.01, * P < 0.01, *** P < 0.0001. (PNG 321 KB)
With `COc1ccc2nc(N)nc(C)c2c1` [TDI-012610], the Weight per female was 5.06 and 5.3 and 4.76 and 5.08 and 6.44 and 5.56 and 5.1 and 5.2 and 4.94. The same measure, in the same setting: with `Cc1nc(NC(=N)N)nc2cc(OC(F)F)ccc12` [TDI-012615] the figure was 4.84 and 4.22 and 3.7 and 4.44 and 5.12 and 5.02; with `COc1ccc2c(C)nc(NC(=N)N)nc2c1` [TDI-012631, reference compound], 3.78 and 4.78 and 4.32 and 4.98 and 4.84 and 4.54 and 4.6 and 4.4 and 4.7; with `COc1cc2c(C)nc(NC(=N)N)nc2cc1OCc1ccccc1` [TDI-012943], 5.56 and 4.62 and 6.38 and 5.32 and 5.86 and 5.46 and 6.42 and 4.9 and 4.72. The same measure, in the same setting: with `COc1ccc(COc2ccc3c(C)nc(NC(=N)N)nc3c2)cc1` [TDI-013000] the figure was 5.2 and 5.78 and 5.28 and 5.38 and 5.92 and 5.46 and 5.14 and 5.02 and 5.66 and 4.68 and 5.36. Take `CCOc1cc2c(C)nc(NC(=N)N)nc2cc1OCc1ccccc1` [TDI-013758]: the Weight per female is 4.26 and 4.22 and 4.44 and 4.2 and 3.5 and 3.62. The same measure, in the same setting: with `Cc1nc(NC(=N)N)nc2cc(OCC3CCCOC3)ccc12` (stereo not shown) [TDI-014167] the figure was 4.74 and 4.44 and 4.2 and 4.64 and 4.3 and 5; with `Cc1nc(NC(=N)N)nc2cc(OCC(F)(F)F)ccc12` [TDI-014168], 4.14 and 3.8 and 3.84 and 3.86 and 3.64 and 3.76 and 4.28 and 4.24 and 4.5 and 4.4; with `Cc1nc(NC(=N)N)nc2cc(OCC3CCCCC3)ccc12` [TDI-014169], 4.9 and 4.46 and 4.44 and 4.24 and 5.22. On the same count and under the same terms, with `Cc1nc(NC(=N)N)nc2cc(OCc3ccc(OC(F)F)cc3)ccc12` [TDI-014170] the figure was 3.88 and 4.72 and 4.12 and 3.9 and 4.1 and 3.96 and 4.52 and 4.7 and 4.64 and 4.94; with `Cc1nc(NC(=N)N)nc2cc(OCC3CC3)ccc12` [TDI-014171], 4.34 and 5.12 and 4.22 and 4.02 and 3.08 and 4 and 3.4 and 4.6 and 4.78 and 5.36 and 5.02.

On to `Cc1nc(NC(=N)N)nc2cc(OCc3ccc(OC(F)(F)F)cc3)ccc12` [TDI-014172], for which the Weight per female is 4.62 and 4.64 and 3.64 and 3.96 and 4.74 and 4.82. Turning to `COc1ccc(COc2ccc3c(C)nc(NC(=N)N)nc3c2)cn1` [TDI-014173], the Weight per female was 5.16 and 3.8 and 4.04 and 4.5 and 3.98 and 3.6 and 3.66 and 3.64 and 3.58 and 3.86 and 4.36 and 4.42 and 4.66 and 4.72 and 5.76. In the case of `Cc1nc(NC(=N)N)nc2cc(OCC3CCOC3)ccc12` (stereo not shown) [TDI-014174], the Weight per female is 3.98 and 4.04 and 4 and 4.42 and 4.02 and 3.94 and 4.6 and 4.36 and 4.32 and 4.28 and 3.46. In the case of `COc1ccc(OCc2ccc3c(C)nc(NC(=N)N)nc3c2)cc1` [TDI-014175], the Weight per female is 5.68 and 4.34 and 4.64 and 4.76 and 4.72 and 4.54. As for `CCOc1ccc(COc2ccc3c(C)nc(NC(=N)N)nc3c2)cc1` [TDI-014176], the Weight per female is 4.82 and 5.34 and 4.9 and 4.86 and 4.26 and 3.86. With `CCOc1ccc2c(C)nc(NC(=N)N)nc2c1` [TDI-014177], the Weight per female is 5.16 and 3.86 and 4.62 and 4.14 and 4.42 and 4.36. The same measure, in the same setting: with `CCCOc1ccc2c(C)nc(NC(=N)N)nc2c1` [TDI-014178] the figure was 4.74 and 4.72 and 4.48 and 4.08 and 4.22. `Cc1nc(NC(=N)N)nc2cc(OCc3cccnn3)ccc12` [TDI-014179]: the Weight per female is 5.26 and 4.72 and 3.92 and 4.46 and 4.32 and 4.68.

On to `COc1ccc(COc2ccc3c(C)nc(NC(=N)N)nc3c2)cc1OC` [TDI-014180], for which the Weight per female is 4.76 and 5.28 and 6.02 and 5.54 and 4.14 and 4.58.

Consider `Cc1nc(NC(=N)N)nc2cc(OCc3cnccn3)ccc12` [TDI-014181], for which the Weight per female was 4.72 and 4.28 and 4.06 and 5.32 and 4.42. On the same count and under the same terms, with `Cc1nc(NC(=N)N)nc2cc(OCc3ccc(S(C)(=O)=O)cc3)ccc12` [TDI-014182] the figure was 5 and 4.06 and 3.94 and 3.34 and 3.84 and 4.28 and 5.28 and 4.58.

Take `Cc1nc(NC(=N)N)nc2cc(OC3CCCc4ccccc43)ccc12` (stereo not shown) [TDI-014183]: the Weight per female is 4.52 and 4.48 and 4.4 and 4.86. Same read-out and setting: with `CNc1nc(NC(=N)N)nc2cc(OCc3ccccc3)c(OC)cc12` [TDI-014184] the figure was 5.2 and 4.6 and 4.02.

Take `CNc1nc(NC(=N)N)nc2cc(OCc3ccc(OC)cc3)c(OC)cc12` [TDI-014185]: the Weight per female is 3.78 and 4.24 and 4.26 and 4.74 and 4.55. For `Cc1nc(NC(=N)N)nc2cc(N3CCc4ccccc4C3)ccc12` [TDI-014186], the Weight per female was 5.28 and 5 and 5.44. In the case of `CNc1nc(NC(=N)N)nc2cc(OCC3CCOCC3)ccc12` [TDI-014188], the Weight per female was 4.46 and 4.78 and 4.84 and 5 and 4.82 and 4.54. For the molecule `CNc1nc(NC(=N)N)nc2cc(OCc3ccc(OC)cc3)ccc12` [TDI-014190], the Weight per female was 4.6 and 4.72 and 4.4 and 3.78 and 4.5 and 4.58.

With `Cc1nc(NC(=N)N)nc2cc(OCC3CCCCO3)ccc12` (stereo not shown) [TDI-014192], the Weight per female is 5.26 and 3.82 and 4.36 and 3.42 and 3.64 and 3.72 and 4.24 and 3.12 and 4.64 and 5.56 and 5.06.

The same data set, now with this note: Supplemental Figure 1 Panel D; compounds of Fig 4; individual replicate values.
Turning to `COc1ccc2c(C)nc(NC(=N)N)nc2c1` [TDI-012631, reference compound], the Weight per female was 4.88 and 5.92 and 4.76 and 4.86 and 4.78 and 4.22 and 5.88 and 5.36 and 4.48 and 4.2 and 5.32 and 5 and 5.16.

`Cc1nc(NC(=N)N)nc2cc(OCc3ccc(OC(F)F)cc3)ccc12` [TDI-014170]: the Weight per female is 4.86 and 5.18 and 4.4 and 4.8 and 3.5 and 4.26 and 4.44 and 4.32. Same read-out and setting: with `CNc1nc(NC(=N)N)nc2cc(OCc3ccccc3)c(OC)cc12` [TDI-014184] the figure was 4.82 and 4.92 and 5.5 and 5.18 and 5.64 and 3.48 and 3.64 and 4.54 and 3.74 and 4.46; with `Cc1nc(NC(=N)N)nc2cc(N3CCc4ccccc4C3)ccc12` [TDI-014186], 5.32 and 4.54 and 5.2 and 5.02 and 4.92 and 5.66 and 5.6 and 4.78 and 4.46 and 4.38 and 4.58 and 3.36 and 3.74 and 4.08 and 3.86 and 4.3 and 4.76 and 5.44. Same read-out and setting: with `CNc1nc(NC(=N)N)nc2cc(OCC3CCOCC3)ccc12` [TDI-014188] the figure was 4.3 and 5.68 and 4.6 and 4.1 and 5.96 and 5.26 and 5.16 and 5.56 and 5.28 and 3.42 and 3.88 and 5.4 and 5.08 and 4.38 and 4.22 and 4.44 and 4.5 and 4.78.
